Results are given in words; binding and its absence hold for the method and conditions named. In cells and extracts the contact can be indirect. Some binding calls cover weakened binding; strength is not graded here. For some of these results: Sequences can lack the tags named with a protein.
Tests used:
[1] = target: Rbbp5 (endogenous) (mouse) (UniProt Q8BX09); assay: co-IP of Flag-tagged Ash2l constructs from nuclear extracts, Western blot
[2] = target: T1, Recombinant GST-fusion protein of Nanog (UniProt Q80Z64); assay: in vitro Flag pull-down with GST-fusion proteins, Coomassie staining
T1 sequence (looked up): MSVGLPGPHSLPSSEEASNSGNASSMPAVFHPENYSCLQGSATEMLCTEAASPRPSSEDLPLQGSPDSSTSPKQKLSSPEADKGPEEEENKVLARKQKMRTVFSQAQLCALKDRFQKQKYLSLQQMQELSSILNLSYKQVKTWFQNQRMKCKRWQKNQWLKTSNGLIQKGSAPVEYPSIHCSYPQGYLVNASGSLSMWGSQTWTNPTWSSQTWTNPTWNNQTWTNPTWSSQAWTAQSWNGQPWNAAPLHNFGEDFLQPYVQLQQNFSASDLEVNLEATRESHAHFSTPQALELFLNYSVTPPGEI

By UniProt entry, the sequences of proteins in these tests, tags left out.
UniProt Q8BX09: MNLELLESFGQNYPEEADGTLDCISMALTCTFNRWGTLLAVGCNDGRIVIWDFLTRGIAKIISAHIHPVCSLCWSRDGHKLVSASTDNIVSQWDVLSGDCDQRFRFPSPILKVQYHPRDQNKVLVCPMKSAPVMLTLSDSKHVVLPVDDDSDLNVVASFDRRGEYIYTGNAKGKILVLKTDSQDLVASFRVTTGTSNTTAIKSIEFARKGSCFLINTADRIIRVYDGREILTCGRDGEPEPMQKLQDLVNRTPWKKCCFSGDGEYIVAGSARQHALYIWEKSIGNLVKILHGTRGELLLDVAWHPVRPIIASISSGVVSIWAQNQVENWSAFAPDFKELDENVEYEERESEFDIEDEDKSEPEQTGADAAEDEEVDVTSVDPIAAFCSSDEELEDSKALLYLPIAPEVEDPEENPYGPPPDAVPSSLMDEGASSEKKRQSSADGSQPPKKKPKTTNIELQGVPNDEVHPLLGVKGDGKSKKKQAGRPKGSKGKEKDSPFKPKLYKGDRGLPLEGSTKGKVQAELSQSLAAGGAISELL
UniProt P48432: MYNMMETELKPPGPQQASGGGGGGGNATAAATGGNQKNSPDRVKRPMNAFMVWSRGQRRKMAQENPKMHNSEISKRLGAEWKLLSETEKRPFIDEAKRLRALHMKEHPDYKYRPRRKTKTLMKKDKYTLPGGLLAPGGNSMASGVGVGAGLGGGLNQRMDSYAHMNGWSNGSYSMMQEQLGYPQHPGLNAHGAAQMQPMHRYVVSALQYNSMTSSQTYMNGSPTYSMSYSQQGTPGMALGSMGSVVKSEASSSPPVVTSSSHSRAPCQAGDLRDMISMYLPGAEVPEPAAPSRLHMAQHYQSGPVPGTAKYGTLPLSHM
UniProt P20263: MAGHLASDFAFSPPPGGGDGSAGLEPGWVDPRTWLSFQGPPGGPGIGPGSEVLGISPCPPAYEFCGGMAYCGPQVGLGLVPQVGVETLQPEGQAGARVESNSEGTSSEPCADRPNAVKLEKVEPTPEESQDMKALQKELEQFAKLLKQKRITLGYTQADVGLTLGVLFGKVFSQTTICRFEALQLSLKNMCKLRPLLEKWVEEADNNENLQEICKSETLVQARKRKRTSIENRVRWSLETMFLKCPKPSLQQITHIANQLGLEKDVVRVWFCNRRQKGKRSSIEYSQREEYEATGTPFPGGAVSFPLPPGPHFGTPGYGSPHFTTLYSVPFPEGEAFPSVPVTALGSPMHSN

[3] = target: Recombinant GST-fusion protein of Rbbp5 (UniProt Q8BX09); assay: as above
[4] = target: Recombinant GST-fusion protein of Sox2 (UniProt P48432); assay: as above
[5] = target: T1, Recombinant GST-fusion protein of Nanog; assay: in vitro pull-down with purified recombinant proteins, Western blot or Coomassie staining
[6] = target: Recombinant GST-fusion protein of Oct4 (UniProt P20263); assay: as above
[7] = target: Recombinant GST-fusion protein of Sox2 (UniProt P48432); assay: as above
[8] = target: T1, Recombinant GST-fusion protein of Nanog; assay: GST pull-down with recombinant proteins, Western blot
[9] = target: Recombinant GST-fusion protein of Oct4 (UniProt P20263); assay: as above
[10] = target: Recombinant GST-fusion protein of Sox2 (UniProt P48432); assay: as above
[11] = target: Rbbp5 (endogenous) (mouse) (UniProt Q8BX09); assay: co-IP from gel filtration fraction 4 of ESC nuclear extract
[12] = target: Rbbp5 (endogenous) (mouse) (UniProt Q8BX09); assay: co-IP with anti-Ash2l antibody from the 4th gel filtration fraction of ESC nuclear extract

Measured: binding

Flag-tagged Ash2l-C terminus (387-623, the SPRY domain) (from UniProt Q91X20 387-623)
binds: [1]

Flag-tagged Ash2l with W118A point mutation (from UniProt Q91X20 1-623)
binds: [2] | [3] | [4]

Flag-tagged full-length Ash2l (Ash2l-Full length: 1-623) (from UniProt Q91X20 1-623)
binds: [5] | [6] | [7] | [8] | [9] | [10] | [1]

Ash2l (endogenous, in nuclear extracts of mouse embryonic stem cells) (from UniProt Q91X20 1-623)
binds: [11] | [12]

B1: Flag-tagged Ash2l-N terminus (1-172, the PHD domain) (other, UniProt Q91X20 1-172, looked up)
chain: MAAAGAGPGPGVSAGPGPGAAASATTAEDRETEPVAAGAGEGPSAAPGAEPSSGEAESGDANLVDVSGLETESSNGKDTLEGTGDTSEVMDTQAGSVDEENGRQLGEVELQCGICTKWFTADTFGIDTSSCLPFMTNYSFHCNVCHHSGNTYFLRKQANLKEMCLSALANLT
notes: range 1-172; also called Flag-Ash2l-N; not shown: 3xFlag tag of the p3xFlag plasmid
binds: [5] | [6] | [7] | [8] | [9] | [10]

Source: patent publication US20210102174A1 (TAIPEI VETERANS GENERAL HOSPITAL, published 2021)
